Paper doi:10.1101/2022.03.03.482736
These are yes or no findings as the source states them, for the method shown.

Experiments:
[1] = target: BmPvs25(C-tag) (Plasmodium vivax) (UniProt O96555); test: SEC
[2] = target: BmPvs25(N-tag) (Plasmodium vivax) (UniProt O96555); test: SEC

| Substance | binding [1] | binding [2] |
| --- | --- | --- |
| BmPvs25(C-tag) (from UniProt O96555 23-195) (domain or fragment) | no binding |  |
| BmPvs25(N-tag) (from UniProt O96555 23-195) (domain or fragment) |  | no binding |
